Experimental data taken from article PMC12073189, “Synthesis and Evaluation of a Novel Zuranolone Analog with High GABAA Receptor PAM Activity and Excellent Pharmacokinetic Profiles” (Molecules, 2025).
The structures given here were assigned with low confidence; some may be wrong.

Tests used:
[1] = Liver microsome metabolic stability (RLM); conditions: rat liver microsomes
Protocol: (§1) We quantified S1–S15 and Zuranolone using a UPLC-MS/MS (Agilent 1290 Infinity II UHPLC (Agilent Technologies, Santa Clara, CA, USA) coupled with a QTRAP 5500 MS/MS (ESI source) (SCIEX, Redwood City, CA, USA for MS/MS). The method assessed the content level of S9 and Zuranolone in microsome metabolism and in rat brain tissue and plasma. An ACQUITY UPLC Peptide BEH C18 column (Waters; 50 × 2.1 mm, 1.7 μm; 60 °C; Waters Corporation, Milford, MA, USA) was used with a mobile phase of 0.02% propionic acid in water (A) and acetonitrile (B). The gradient elution of the mobile phase B is carried out as follows: it is 10% from 0 to 0.5 min, 90% from 0.8 to 2.5 min, and 10% from 2.8 to 3.5 min, with a flow rate of 0.40 mL/min. Quantitative analysis was performed on a QTRAP 5500 MS (SCIEX, Redwood City, CA, USA) in positive ionization mode with MRM (multiple reaction monitoring), using progesterone-d9 as the internal standard. MRM transitions and parameters were optimized for each analyte, with collision energies of 25 V (S1–S15), 23 V (Zuranolone), and 30 V (IS), and declustering potentials of 80 V (S1–S15), 90 V (Zuranolone), and 180 V (IS). […]
(§2) To evaluate the metabolic stability of compounds S1–S15 and Zuranolone in RLM and HLM, we designed the following in vitro liver microsome metabolism assay protocol. […] After centrifuging the mixture, we analyzed the supernatant using UPLC-MS/MS. […]

[2] = Liver microsome metabolic stability (HLM); conditions: human liver microsomes
Protocol: as §1, §2

With C[C@@]1(O)CC[C@@]2(C)[C@@H](CC[C@@H]3[C@@H]2CC[C@]2(C)[C@@H](C(=O)Cn4cnn(-c5ccnc(F)c5)c4=O)CC[C@@H]32)C1 the “RLM T1/2” value [1] was 34 min and the “HLM T1/2” value [2] was 40 min.
